Experimental data taken from PMC4240632.

B1: SCE (protein, UniProt Q9VB08 1-435)
chain: MTSLDPAPNKTWELSLYELQRKPQEVITDSTEIAVSPRSLHSELMCPICLDMLKKTMTTKECLHRFCSDCIVTALRSGNKECPTCRKKLVSKRSLRADPNFDLLISKIYPSREEYEAIQEKVMAKFNQTQSQQALVNSINEGIKLQSQNRPQRFRTKGGGGGGGGGGNGNGAANVAAPPAPGAPTAVGRNASNQMHVHDTASNDSNSNTNSIDRENRDPGHSGTSAASAITSASNAAPSSSANSGASTSATRMQVDDASNPPSVRSTPSPVPSNSSSSKPKRAMSVLTSERSEESESDSQMDCRTEGDSNIDTEGEGNGELGINDEIELVFKPHPTEMSADNQLIRALKENCVRYIKTTANATVDHLSKYLAMRLTLDLGADLPEACRVLNFCIYVAPQPQQLVILNGNQTLHQVNDKFWKVNKPMEMYYSWKKT
B2: dBRE1 (protein, UniProt Q9VRP9 1-1044)
chain: MSKRSADDATGSSCLVAAAAAGQPPIKKVHFEPHLIGPVSTLEEMDIKVLEFQNKKLAQRIEQRMRTEAELRHRIEQLEKRQTQDDAVLNVVNRYWNQLNEDIRVLLQRFDAETADELENRNENEVTTSFLAQLSTWDKEELDEKLANRVQVSKRAVAKIVQVIDRLMQRNEKITHVLKGDSLASAGSGSGAGAGGEEEQQQASGDAETTTSSAGVHALEETLKQTHIEIMSENHKLQNLNTSLHEKFHTMSLKMKEYQDAHTAKETENAELKNQIDELQYDLEKIHCRNDKLENHLAEAIEKLKAYHQIYGDPNKSTNSAKTPTTTGSGGATTSVNSQLLEELQKELEEYRELANNRLQELDKLHATHRETLKEVEKLKMDIRQLPESVIVETTEYKCLQSQFSVLYNESMQIKTMLDETRNQLQTSKNQHLRQIEVMESEELIAQKKVRSEMIQMEDVLALIRKEYETLRIEFEQNMAANEQTAPINREMRHLITSLQNHNGQLKGEVQRYKRKYKDTSTDNLKLRQELADALATLEGNKLQAATGAAGEEIKQENSTGVKEENSNNVSASGQTNQTNSGNDTNVAIKEENHISAEDEADDEASGKDVKDGIKQEKLSSGDAAAAEKKDSPGPGNSTSSATNSVPVKNEKDSKDGVKGKDVKAVESETVRDLKAQLKKALNDQKEMKLLLDMYKGVSKDQRDKVQLMATEKKLRSEIEELRQQLKKLQESKREERKKLADEEALRKIKQLEEQKYELQKQMANHKPTDNSWGSGAPGTANYTRPFVGSHEEEALLNEMEVTGQAFEDMQEQNSRLIQQLREKDDANFKLMSERIKANQLHKLLREEKTVLEDQMATATTQIEAMHIVLRKLEEKERSLQATVASIEKELMLRQQAMEMHKRKAIESAQSAADLKLHLEKYHAQMKEAQQVVAEKTSSLEAEAYKTKRLQEELAQFKRKAERMKKMEMSGTTIDEVMIEEIREYKETLTCPSCKVKRKDAVLSKCFHVFCYDCLRTRYETRQRKCPKCNCAFGANDYHRLYLQ
B3: Polycomb (protein, UniProt P26017 1-390)
chain: MTGRGKGSKGKLGRDNATDDPVDLVYAAEKIIQKRVKKGVVEYRVKWKGWNQRYNTWEPEVNILDRRLIDIYEQTNKSSGTPSKRGIKKKEKEPDPEPESEEDEYTFTENDVDTHQATTSSATHDKESKKEKKHHHHHHHHHHIKSERNSGRRSESPLTHHHHHHHHESKRQRIDHSSSSNSSFTHNSFVPEPDSNSSSSEDQPLIGTKRKAEVLKESGKIGVTIKTSPDGPTIKPQPTQQVTPSQQQPFQDQQQAEKIASEAATQLKSEQQATPLATEAINTTPAESGAEEEEVANEEGNQQAPQVPSENNNIPKPCNNLAINQKQPLTPLSPRALPPRFWLPAKCNISNRVVITDVTVNLETVTIRECKTERGFFRERDMKGDSSPVA
B4: SU(Z)2 (protein, UniProt P25172 1-1368)
chain: MHLQNTHNTMESNAAMDAASPASRDVRQFHDLITCRLCRGYMIDPTTVDYCYHTYCRSCILKHLLRAVYCPECKASGGKEINELNLKSDDTLRSLIYKLVPGLYQRECKELADFKEQHDLVDEQTTDEPEFFTTTELISLSLEYHPAMLHQCGPGEVPPTIYLQCAAGLPVELLKRFLCSKYNIETDNGLVEVEVTYKDEVLPTNFTLMDVAYCYNWSRESPMAFCYRILLYDNEQTKNDENNLSRINQDIEPEHSVRRSKSAKSVTFAEDLESEIDSGSPRSKVRCKTPPKVSPSSKNKRLTSSKREAEPESPVSNFKSLRSNDMRYSDYAVSKVKSEPEQEQFLLPREREQQPLEANTNIVVSIPPSQLRKSYVDAEDFELKTANRKGVGHLPKLKIELNSMKSKLSMPLSAGPRLEDTSCSLSCSAQQLDLETYAKNIGLKPIEQPLQQSASNPDSKYSPNASPMSSCSSSTNGSSSSLGTADASTSTSTSSSHRKRKKKHSKEPKDANGKRKKLHAEISSQTDGKMKVKITAKPNHKLDFKRSHSLASGELDLQKLKLDSTSTSEALNRTLGEEARSINSLVVGGAPTPPPTPTAEPEQQQQQQQQQQQPQQQQQQQQQQQQQQQFVVLPKIKDLTLPTSPPLPPSLFKAYTPSTTPTAPHTVAGGKPKQQQQQMPQQPQAVLQQSLAKTNPAKPPLSSNNNRKPNSGHFAVPQAPTHRNMYHMQRYQSTPSSIASAANKMPKRSMSLDESHPAKQARLSQAQAMASSYAAKLHMQTSNQAKSQAAAFLPNPQMRSYGLPDLGSKPTLPMLCPASSSSQVTITPRPRATPSIYSFSEPNIHVPALEIVRLPVNKQSAGGKGLTMPPLSPPATSSARLMGPPAALPKHAGHGHGAAKRSCQMPTMPMPLPLPLPMPMTTIPAIVKSPPLSVALSGQRNNKGNSSNSNAYRTSPPALINLRNTAAPQHSFPSKSSPKVEANSKKSPPAAGCQGKTNGTAALDKSKTSLREFRPAVQSAVTATATTSVTTAAGAGAGAGTGTGTALAKDADILDLSANPGRSNNDAKLAPNSPPAGNNNNNNNNNNNNNNNNNNNNNNSTSNSLEAALNKIKQNISANSNGGPSTTSGSNSNGTTNGDDLQNLHMLSESATAREKISIKAASSGNGSGSTSSSSAKPKNANALVRPQNASVRSIPNPSALAFRNQPAAASTAASISKPLTVRAEEKPKVSTSNPGSLSPTNTSSSSSSSSSGSSGCSAATSPRAMTKKPTTIDQVAANLNIRAEAKAAALAEEAPPVLSSNAAKSPELAKTTTAVALRPEPKETPITVSAASTLLTIPSAVSSVSAVPETMAKPPVQIANAPVASSA
B5: RAD6 (protein, UniProt P25153 1-151)
chain: MSTPARRRLMRDFKRLQEDPPTGVSGAPTDNNIMIWNAVIFGPHDTPFEDGTFKLTIEFTEEYPNKPPTVRFVSKVFHPNVYADGGICLDILQNRWSPTYDVSAILTSIQSLLSDPNPNSPANSTAAQLYKENRREYEKRVKACVEQSFID

What follows are binders tested against dRYBP (Drosophila (endogenous in embryos)) (assay: affinity purification with mass spectrometry; two affinity purified anti-dRYBP antibodies (#194, #195) on sepharose A beads; nuclear extracts of 0-12 h Drosophila embryos; washes with 400 mM or 800 mM KCl and 0.1% NP-40; gel bands identified by nanoflow LC-MS/MS).

| Binder | binding |
| --- | --- |
| B1 | binds |
| B2 | binds |
| B3 | no binding |
| B4 | no binding |
| B5 | no binding |

No constants are given. Whether binding was seen depends on the method and setting. Binding seen in cells or lysates may run through a third protein. These calls come from enrichment with a bait or labelling near it, and not all partners need be listed. A no says only that the protein was not detected with the bait.
